In publication doi:10.64898/2025.12.23.696137:
No constants are given. Whether binding was seen depends on the method and setting. Binding seen in cells or lysates may run through a third protein. These calls come from enrichment with a bait or labelling near it, and not all partners need be listed.

Protein sequences, listed by entry. Tags and fused reporters are not part of them. Residues count along the entry.
UniProt Q9EPL4, residues 19-318: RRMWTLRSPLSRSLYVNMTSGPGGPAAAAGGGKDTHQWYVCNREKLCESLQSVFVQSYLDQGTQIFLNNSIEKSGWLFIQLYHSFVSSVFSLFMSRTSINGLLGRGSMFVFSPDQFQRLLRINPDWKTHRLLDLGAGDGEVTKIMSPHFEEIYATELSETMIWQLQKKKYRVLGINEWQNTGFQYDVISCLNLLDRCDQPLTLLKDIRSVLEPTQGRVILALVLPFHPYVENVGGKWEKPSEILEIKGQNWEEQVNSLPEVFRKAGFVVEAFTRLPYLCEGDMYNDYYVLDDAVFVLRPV
UniProt P27824, residues 21-592: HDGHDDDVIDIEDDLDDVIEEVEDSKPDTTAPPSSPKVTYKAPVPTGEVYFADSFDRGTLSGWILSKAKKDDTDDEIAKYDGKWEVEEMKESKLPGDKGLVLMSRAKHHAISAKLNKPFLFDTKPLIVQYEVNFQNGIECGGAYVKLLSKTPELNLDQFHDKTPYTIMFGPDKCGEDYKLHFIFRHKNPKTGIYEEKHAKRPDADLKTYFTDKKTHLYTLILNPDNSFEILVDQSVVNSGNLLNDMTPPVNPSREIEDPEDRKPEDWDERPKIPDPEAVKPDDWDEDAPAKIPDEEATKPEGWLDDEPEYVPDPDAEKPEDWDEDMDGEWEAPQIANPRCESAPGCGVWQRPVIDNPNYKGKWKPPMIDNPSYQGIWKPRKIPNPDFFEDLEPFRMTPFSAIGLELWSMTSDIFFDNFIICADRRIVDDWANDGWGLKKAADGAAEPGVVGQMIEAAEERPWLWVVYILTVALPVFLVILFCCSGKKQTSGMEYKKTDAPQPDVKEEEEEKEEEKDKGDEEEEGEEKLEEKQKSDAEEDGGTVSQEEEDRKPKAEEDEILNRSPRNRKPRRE

Molecular target: METTL9-FLAG wild type (mouse) (mouse) (UniProt Q9EPL4)
Test: affinity purification with mass spectrometry

binding: binds
Substance: calnexin (from UniProt P27824 21-592)
